# According to PubChem BioAssay AID328 (DTP/NCI, 2004):
# The list shows only some results of the screen, not a fair sample: it gathers tests that were run many times, whatever their T/C, doses with no T/C, and many T/C values between a quarter and a half above the control. Further doses and runs are listed elsewhere. T/C: endpoint of the treated group in % of that of the vehicle group. Some doses have a count of surviving animals in place of a T/C: the source holds a T/C of zero for them, seemingly a mark for toxic or unscored doses. Some doses without a T/C left all or most animals alive at the check, yet need not have been tolerated: survival well below the control is almost never listed, so the zero probably covers shortened survival too. Counts of survivors are from the toxicity check (mostly the fifth day) where no day follows; animals may have died later. Schedule codes are those of the source, taken here to give the interval after Q, in days (D) or hours (H), and the number of doses after X. Where survival is the endpoint, this PubChem deposit counts one and a half times the control or more as active, and values a quarter to a half above the control carry no call in these data; other NCI protocols may use other cut-offs. Some T/C values carry the count of animals alive at the toxicity check (mostly the fifth day); without a count, all were alive then.
# Test system: BDF1 mice, P388 leukemia ip, median survival T/C
# Experiment: NCI In Vivo Anticancer Drug Screen. Data for tumor model P388 Leukemia (intraperitoneal) in B6D2F1 (BDF1) mice
# Details: T/C endpoint: median survival time, higher T/C = longer survival
# Outline: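 In tumour-bearing mice, survival after compound treatment is set against the vehicle group and given as a quotient.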
smiles,measurement,setting,value
Cc1c2oc3c(C)ccc(C(=O)NC4C(=O)NC(C(C)C)C(=O)N5CCCC5C(=O)N(C)CC(=O)N(C)C(C(C)C)C(=O)OC4C)c3nc-2c(C(=O)NC2C(=O)NC(C(C)C)C(=O)N3CCCC3C(=O)N(C)CC(=O)N(C)C(C(C)C)C(=O)OC2C)c(NCCCO)c1=O (centres undefined),T/C,"dose: 1.6 mg/kg/injection, schedule: Q01DX001 (ip), vehicle: saline + alcohol",149 % of control
same,T/C,"dose: 12.8 mg/kg/injection, schedule: Q01DX001 (ip), vehicle: saline + alcohol",132 % of control [7 of 8 alive]
COc1cc2c(cc1OC)-c1c(C)c3ccc(OC)c(NCc4ccccc4)c3c[n+]1CC2,survivor count,"dose: 12.5 mg/kg/injection, schedule: Q04DX003 (ip), vehicle: other",4 of 6
same,survivor count,"dose: 25.0 mg/kg/injection, schedule: Q04DX003 (ip), vehicle: other",0 of 6
CC1=C2CC(C)(C)/C=C\C(=O)/C(C)=C\C3=CC(C)(O)CC3(O2)C1=O (centres undefined),T/C,"dose: 2.5 mg/kg/injection, schedule: Q01DX009 (ip), vehicle: saline + alcohol",130 % of control
same,T/C,"dose: 5.0 mg/kg/injection, schedule: Q01DX009 (ip), vehicle: saline + alcohol",134 % of control
same,survivor count,"dose: 20.0 mg/kg/injection, schedule: Q01DX009 (ip), vehicle: saline + alcohol",1 of 4
COc1cc2oc(-c3ccc(O)cc3O)c(CC=C(C)C)c(=O)c2c(O)c1/C=C/C(C)C,T/C,"dose: 6.25 mg/kg/injection, schedule: Q01DX009 (ip), vehicle: Klucel (hydroxypropylcellulose) (HPC)",126 % of control
O=c1[nH]c2nc(Cl)c(Cl)nc2[nH]1,survivor count,"dose: 400.0 mg/kg/injection, schedule: Q04DX003 (ip), vehicle: saline",3 of 6
C1CCC2C(C1)NC1CCCCC12 (centres undefined),survivor count,"dose: 100.0 mg/kg/injection, schedule: Q01DX009 (ip), vehicle: saline",3 of 6
NC(N)=NO,T/C,"dose: 75.0 mg/kg/injection, schedule: Q01DX009 (ip), vehicle: saline, evaluated on day 5",131 % of control
same,T/C,"dose: 75.0 mg/kg/injection, schedule: Q01DX009 (ip), vehicle: saline, evaluated on day 60",129 % of control
same,T/C,"dose: 100.0 mg/kg/injection, schedule: Q01DX009 (ip), vehicle: saline, evaluated on day 5",136 % of control
same,T/C,"dose: 100.0 mg/kg/injection, schedule: Q01DX009 (ip), vehicle: saline, evaluated on day 60",133 % of control
same,T/C,"dose: 150.0 mg/kg/injection, schedule: Q01DX009 (ip), vehicle: saline, evaluated on day 5",149 % of control
same,T/C,"dose: 150.0 mg/kg/injection, schedule: Q01DX009 (ip), vehicle: saline, evaluated on day 60",145 % of control
Cn1c(-c2ccccc2)c2c(c1-c1ccccc1)CCCC2,survivor count,"dose: 400.0 mg/kg/injection, schedule: Q04DX002 (ip), vehicle: saline with Tween-80",6 of 6
O=NN1CCCNC1=O,survivor count,"dose: 150.0 mg/kg/injection, schedule: Q04DX003 (ip), vehicle: saline with Tween-80",5 of 6
CO/C(O)=c1/nc2c(n(C)c1=N)=CCCC2,survivor count,"dose: 200.0 mg/kg/injection, schedule: Q01DX009 (ip), vehicle: saline with Tween-80",3 of 6
COc1cc2cc(c1Cl)NC(=O)CC(OC(=O)C(C)N(C)C(C)=O)C1(C)OC1C(C)C1CC(O)(NC(=O)O1)C(OC)C=C/C=C(\C)C2 (centres undefined),T/C,"dose: 1.6 micrograms/kg/injection, schedule: Q01DX009 (ip), vehicle: saline + alcohol",130 % of control
same,T/C,"dose: 3.1 micrograms/kg/injection, schedule: Q01DX009 (ip), vehicle: saline + alcohol",125 % of control
COc1ccc(/C=C/C(=N\O)c2ccc(OC)c(OC)c2)cc1OC,survivor count,"dose: 200.0 mg/kg/injection, schedule: Q01DX009 (ip), vehicle: saline",5 of 6
O=C(Nc1cc(C(F)(F)F)cc(C(F)(F)F)c1)Nc1c(Oc2ccc(Cl)cc2Cl)ccc(Cl)c1S(=O)(=O)O,survivor count,"dose: 200.0 mg/kg/injection, schedule: Q04DX003 (ip), vehicle: saline sonified",6 of 6
CC[C@@]1(O)C(=O)OCc2c1cc1n(c2=O)Cc2cc3c(OC)cccc3nc2-1,T/C,"dose: 2.0 mg/kg/injection, schedule: Q01DX009 (ip), vehicle: carboxymethylcellulose (CMC)",134 % of control
same,survivor count,"dose: 4.0 mg/kg/injection, schedule: Q01DX009 (ip), vehicle: carboxymethylcellulose (CMC)",6 of 6
O=C(O)c1c(Cl)c(Cl)c(Cl)c(Cl)c1C(=O)O.O=C(O)c1c(Cl)c(Cl)c(Cl)c(Cl)c1C(=O)O.[Pt],T/C,"dose: 100.0 mg/kg/injection, schedule: Q04DX003 (ip), vehicle: saline sonified",130 % of control
Cn1cnc([N+](=O)[O-])c1Sc1nc(N)nc2nc[nH]c12,T/C,"dose: 16.0 mg/kg/injection, schedule: Q01DX009 (ip), vehicle: saline with Tween-80",130 % of control
same,survivor count,"dose: 25.0 mg/kg/injection, schedule: Q01DX009 (ip), vehicle: saline with Tween-80",6 of 6
same,survivor count,"dose: 37.5 mg/kg/injection, schedule: Q01DX009 (ip), vehicle: saline with Tween-80",6 of 6
